Some entries share one result that the patent states for a list of compounds.
Assay: Membrane permeability experiment (PAMPA Evolution, pION)
Format: in vitro ADME
Conditions: at pH 5 or more, criteria of the pION INC. protocol

Row | SMILES | membrane permeability (class from membrane permeability coefficient Pe)
1 | CCCN(Cc1cccc(-c2ccccc2)n1)C(=O)c1cn(C)cn1 [Compound 1] | high
2 | CCCN(Cc1ccnc(-c2ccccc2)c1)C(=O)c1cn(C)cn1 [Compound 4] | high
3 | CC(C)N(Cc1ccc(F)c(-c2ccc(F)nc2)c1)C(=O)c1cn(C)cn1 [Compound 9] | high
4 | CC(C)N(Cc1ccc(F)c(-c2cccnc2)c1)C(=O)c1cn(C)cn1 [Compound 10] | high
5 | CC(C)N(Cc1ccc(F)c(-c2ccncc2)c1)C(=O)c1cn(C)cn1 [Compound 11] | high
6 | CC(C)N(Cc1ccc(F)c(-c2ccc(F)cn2)c1)C(=O)c1cn(C)cn1 [Compound 13] | high
7 | CC(C)N(Cc1ccc(F)c(-c2ccccn2)c1)C(=O)c1cn(C)cn1 [Compound 14] | high
8 | CC(C)N(Cc1ccc(F)c(-c2cncc(F)c2)c1)C(=O)c1cn(C)cn1 [Compound 15] | high
9 | Cc1ccc(-c2cc(CN(C(=O)c3cn(C)cn3)C(C)C)ccc2F)cn1 [Compound 21] | high
10 | COc1ccc(-c2cc(CN(C(=O)c3cn(C)cn3)C(C)C)ccc2F)cn1 [Compound 22] | high
11 | CC(C)N(Cc1ccc(F)c(-c2ccc(C#N)nc2)c1)C(=O)c1cn(C)cn1 [Compound 23] | high
12 | CC(C)N(Cc1ccnc(-c2ccc(OC(F)(F)F)cc2)c1)C(=O)c1cn(C)cn1 [Compound 30] | high
13 | CC(C)N(Cc1ccnc(-c2ccc(F)cc2)c1)C(=O)c1cn(C)cn1 [Compound 31] | high
14 | CC(C)N(Cc1ccnc(-c2ccc(C(F)(F)F)cc2)c1)C(=O)c1cn(C)cn1 [Compound 34] | high
15 | CC(C)N(Cc1ccnc(-c2ccccc2)c1)C(=O)c1cn(C)cn1 [Compound 36] | high
16 | CC(C)N(Cc1ccnc(-c2cccnc2)c1)C(=O)c1cn(C)cn1 [Compound 37] | high
17 | CC(C)N(Cc1ccnc(-c2ccc(F)nc2)c1)C(=O)c1cn(C)cn1 [Compound 39] | high
18 | COc1ccc(-c2cc(CN(C(=O)c3cn(C)cn3)C(C)C)ccn2)cn1 [Compound 40] | high
19 | CC(C)N(Cc1ccnc(-c2cccc(F)c2)c1)C(=O)c1cn(C)cn1 [Compound 50] | high
20 | Cn1cnc(C(=O)N(Cc2ccnc(-c3ccc(F)cc3)c2)C2CCOCC2)c1 [Compound 53] | high
21 | CC(C)CN(Cc1ccnc(-c2ccc(F)cc2)c1)C(=O)c1cn(C)cn1 [Compound 54] | high
22 | Cn1cnc(C(=O)N(Cc2ccnc(-c3ccc(F)cc3)c2)C2CCC2)c1 [Compound 55] | high
23 | CCn1cnc(C(=O)N(Cc2ccnc(-c3ccc(F)cc3)c2)C(C)C)c1 [Compound 56] | high

Row | SMILES | membrane permeability (class from membrane permeability coefficient Pe)
24 | CC(C)N(Cc1ccnc(-c2ccc(F)c(F)c2)c1)C(=O)c1cn(C)cn1 [Compound 61] | high
25 | CC(C)N(Cc1ccnc(-c2cc(F)cc(F)c2)c1)C(=O)c1cn(C)cn1 [Compound 62] | high
26 | CC(C)N(Cc1ccnc(-c2cccc(OC(F)(F)F)c2)c1)C(=O)c1cn(C)cn1 [Compound 64] | high
27 | CC(C)N(Cc1ccnc(-c2ccc(F)cc2F)c1)C(=O)c1cn(C)cn1 [Compound 65] | high
28 | CC(C)N(Cc1ccnc(-c2cc(F)c(F)c(F)c2)c1)C(=O)c1cn(C)cn1 [Compound 67] | high
29 | CC(C)N(Cc1ccnc(-c2ccc(F)c(F)c2F)c1)C(=O)c1cn(C)cn1 [Compound 68] | high
30 | CC(C)N(Cc1ccnc(-c2ccc(Cl)cc2)c1)C(=O)c1cn(C)cn1 [Compound 69] | high
31 | CC(C)N(Cc1ccnc(-c2ccc(C(F)(F)F)nc2)c1)C(=O)c1cn(C)cn1 [Compound 70] | high
32 | CC(C)N(Cc1ccc(F)c(-n2cccn2)c1)C(=O)c1cn(C)cn1 [Compound 73] | high
33 | CC(C)N(Cc1ccc(F)c(-n2ccnc2)c1)C(=O)c1cn(C)cn1 [Compound 74] | high
34 | CC(C)N(Cc1ccnc(-c2ccccc2F)c1)C(=O)c1cn(C)cn1 [Compound 77] | high
35 | CC(C)N(Cc1ccnc(-c2cccc(Cl)c2)c1)C(=O)c1cn(C)cn1 [Compound 78] | high
36 | COc1cccc(-c2cc(CN(C(=O)c3cn(C)cn3)C(C)C)ccn2)c1 [Compound 79] | high
37 | COc1ccc(-c2cc(CN(C(=O)c3cn(C)cn3)C(C)C)ccn2)cc1 [Compound 80] | high
38 | CCOc1ccc(-c2cc(CN(C(=O)c3cn(C)cn3)C(C)C)ccn2)cc1 [Compound 81] | high
39 | CC(C)N(Cc1ccnc(-c2ccc(C#N)cc2)c1)C(=O)c1cn(C)cn1 [Compound 82] | high
40 | CC(C)N(Cc1ccnc(-c2cccc(F)c2F)c1)C(=O)c1cn(C)cn1 [Compound 83] | high
41 | CC(C)N(Cc1ccnc(-c2ccc3ccccc3c2)c1)C(=O)c1cn(C)cn1 [Compound 84] | high
42 | CC(C)N(Cc1ccc(F)c(-c2ccnc(F)c2)c1)C(=O)c1cn(C)cn1 [Compound 88] | high
43 | CC(C)N(Cc1ccc(F)c(-c2ncccc2F)c1)C(=O)c1cn(C)cn1 [Compound 89] | high
44 | CC(C)N(Cc1ccnc(-c2ccc(F)c(Cl)c2)c1)C(=O)c1cn(C)cn1 [Compound 92] | high
45 | Cc1ccc(-c2cc(CN(C(=O)c3cn(C)cn3)C(C)C)ccn2)cc1F [Compound 94] | high
46 | Cc1cc(Cl)cc(-c2cc(CN(C(=O)c3cn(C)cn3)C(C)C)ccn2)c1 [Compound 95] | high

Row | SMILES | membrane permeability (class from membrane permeability coefficient Pe)
47 | Cc1cc(-c2cc(CN(C(=O)c3cn(C)cn3)C(C)C)ccn2)ccc1F [Compound 99] | high
48 | COc1cc(F)cc(-c2cc(CN(C(=O)c3cn(C)cn3)C(C)C)ccn2)c1 [Compound 100] | high
49 | CC(C)N(Cc1ccnc(-c2cc(F)cc(Cl)c2)c1)C(=O)c1cn(C)cn1 [Compound 101] | high
50 | CC(C)N(Cc1ccnc(-c2cc(F)ccc2F)c1)C(=O)c1cn(C)cn1 [Compound 102] | high
51 | CCOc1cccc(-c2cc(CN(C(=O)c3cn(C)cn3)C(C)C)ccn2)c1 [Compound 104] | high
52 | CC(C)N(Cc1ccnc(-c2cc(F)c(F)cc2F)c1)C(=O)c1cn(C)cn1 [Compound 105] | high
53 | Cn1cnc(C(=O)N(Cc2ccnc(-c3cccc(OC(F)(F)F)c3)c2)C2CCC2)c1 [Compound 106] | high
54 | Cn1cnc(C(=O)N(Cc2ccnc(-c3ccc(OC(F)(F)F)cc3)c2)C2CCC2)c1 [Compound 107] | high
55 | Cn1cnc(C(=O)N(Cc2ccnc(-c3ccc(F)cc3)c2)C2CCCC2)c1 [Compound 108] | high
56 | Cn1cnc(C(=O)N(Cc2ccnc(-c3ccc(F)cc3)c2)CC2CC2)c1 [Compound 109] | high
57 | CC(C)N(Cc1ccc(F)c(-c2ccc[nH]c2=O)c1)C(=O)c1cn(C)cn1 [Compound 110] | high
58 | CC(C)N(Cc1ccnc(-c2cccc(OCC(F)(F)F)c2)c1)C(=O)c1cn(C)cn1 [Compound 112] | high
59 | Cc1cc(F)cc(-c2cc(CN(C(=O)c3cn(C)cn3)C(C)C)ccn2)c1 [Compound 113] | high
60 | CC(C)N(Cc1ccnc(-c2cccc(C(F)(F)F)c2)c1)C(=O)c1cn(C)cn1 [Compound 114] | high
61 | CC(C)N(Cc1ccnc(-c2ccc(Cl)c(Cl)c2)c1)C(=O)c1cn(C)cn1 [Compound 115] | high
62 | CC(C)N(Cc1ccnc(-c2cc(Cl)cc(Cl)c2)c1)C(=O)c1cn(C)cn1 [Compound 116] | high
63 | CC(C)N(Cc1ccnc(-c2ccccc2Cl)c1)C(=O)c1cn(C)cn1 [Compound 117] | high
64 | Cn1cnc(C(=O)N(Cc2ccnc(-c3ccc(F)cc3)c2)C2CCCCC2)c1 [Compound 119] | high
65 | Cn1cnc(C(=O)N(Cc2ccc(F)c(-c3ccc(F)nc3)c2)C2CCC2)c1 [Compound 120] | high
66 | CC(C)N(Cc1ccc(F)c(-c2ccc3ncccc3c2)c1)C(=O)c1cn(C)cn1 [Compound 122] | high
67 | CC(C)N(Cc1ccc(F)c(-c2cccnc2F)c1)C(=O)c1cn(C)cn1 [Compound 123] | high
68 | CC(C)N(Cc1ccnc(-c2ccc(OC(F)F)cc2)c1)C(=O)c1cn(C)cn1 [Compound 124] | high

— patent US8729271B2, “Glycine transporter inhibiting substances” (Taisho Pharmaceutical Co., Ltd, priority 2010, dated 2014)
